Measurements as given in paper PMC9794062.
These are yes or no findings as the source states them, for the method shown. In cells and extracts the contact can be indirect. Some binding calls cover weakened binding; strength is not graded here. For some of these results: Sequences can lack the tags named with a protein.

By UniProt entry, the sequences of proteins in these tests, tags left out. Where a name states a change or a piece, a line headed by the entry shows the natural chain unless it says otherwise. Chains listed by the source or under a name are the forms on record and can include a tag or linker. Residues count along the entry.
UniProt P09874: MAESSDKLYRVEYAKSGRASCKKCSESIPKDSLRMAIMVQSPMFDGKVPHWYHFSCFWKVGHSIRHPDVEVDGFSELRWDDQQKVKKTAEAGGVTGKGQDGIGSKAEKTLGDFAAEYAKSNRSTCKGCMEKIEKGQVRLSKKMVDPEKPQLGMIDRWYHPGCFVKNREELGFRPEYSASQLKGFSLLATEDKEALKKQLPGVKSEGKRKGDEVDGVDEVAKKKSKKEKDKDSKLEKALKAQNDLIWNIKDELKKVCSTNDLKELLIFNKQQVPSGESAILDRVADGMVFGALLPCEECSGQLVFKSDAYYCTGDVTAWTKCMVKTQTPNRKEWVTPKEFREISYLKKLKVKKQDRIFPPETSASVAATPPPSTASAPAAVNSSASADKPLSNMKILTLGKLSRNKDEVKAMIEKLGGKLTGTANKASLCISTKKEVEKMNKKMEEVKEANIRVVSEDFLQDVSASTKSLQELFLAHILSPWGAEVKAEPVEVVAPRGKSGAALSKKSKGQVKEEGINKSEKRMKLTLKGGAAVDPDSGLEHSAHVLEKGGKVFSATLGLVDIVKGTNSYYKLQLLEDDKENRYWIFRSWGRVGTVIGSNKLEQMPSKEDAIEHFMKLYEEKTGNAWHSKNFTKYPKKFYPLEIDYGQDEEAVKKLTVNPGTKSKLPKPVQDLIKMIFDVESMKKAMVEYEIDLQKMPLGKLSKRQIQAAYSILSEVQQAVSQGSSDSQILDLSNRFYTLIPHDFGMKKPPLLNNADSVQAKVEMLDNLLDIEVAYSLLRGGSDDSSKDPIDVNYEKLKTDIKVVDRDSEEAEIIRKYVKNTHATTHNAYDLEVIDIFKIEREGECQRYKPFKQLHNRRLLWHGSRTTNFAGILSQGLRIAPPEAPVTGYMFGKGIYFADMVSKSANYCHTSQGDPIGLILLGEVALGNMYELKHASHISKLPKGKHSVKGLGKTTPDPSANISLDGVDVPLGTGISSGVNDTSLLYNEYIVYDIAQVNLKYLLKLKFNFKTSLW
GFP-tagged PARP1 (1–374): residues 1-374 of P09874
GFP-tagged PARP1 (356–532): residues 356-532 of P09874
GFP-tagged PARP1 (529–1014): residues 529-1014 of P09874

Experiments:
[1] = target: poly (ADP-ribose) polymerase I (PARP1), endogenous (human (endogenous in HEK293T and T24)) (UniProt P09874); assay: proximity ligation; PLA in T24 cells with antibodies against PARP1 and each translocase; mock, 0.01% MMS for 1 hour, or UV irradiation
[2] = target: GFP-tagged PARP1 (356–532) (UniProt P09874); assay: co-IP; HEK293T cells transfected with GFP-PARP1 constructs; immunoprecipitated with a GFP antibody followed by protein G-agarose, immunoblotting for the translocases
[3] = target: GFP-tagged PARP1 (529–1014) (UniProt P09874); assay: as above
GFP-tagged PARP1 (1–374) = GFP-tagged PARP1 (1–374) (UniProt P09874); assay: as above
[4] = target: poly (ADP-ribose) polymerase I (PARP1), endogenous (human (endogenous in HEK293T and T24)) (UniProt P09874); assay: co-IP; endogenous PARP1 immunoprecipitated with an anti-PARP1 antibody, translocases detected by immunoblotting; cells mock-treated or 0.01% MMS for 1 hour; lysates treated with 100 μg/ml DNase I or 50 μg/ml EtBr as indicated
FLAG-tagged SHPRH = FLAG-tagged SHPRH (UniProt Q149N8); assay: co-IP; HEK293T cells transfected with FLAG-SHPRH constructs; immunoprecipitated with anti-FLAG sepharose beads, immunoblotting for PARP1
[5] = target: T1, FLAG-tagged SHPRH (1090–1683) (UniProt Q149N8); assay: as above
T1 sequence: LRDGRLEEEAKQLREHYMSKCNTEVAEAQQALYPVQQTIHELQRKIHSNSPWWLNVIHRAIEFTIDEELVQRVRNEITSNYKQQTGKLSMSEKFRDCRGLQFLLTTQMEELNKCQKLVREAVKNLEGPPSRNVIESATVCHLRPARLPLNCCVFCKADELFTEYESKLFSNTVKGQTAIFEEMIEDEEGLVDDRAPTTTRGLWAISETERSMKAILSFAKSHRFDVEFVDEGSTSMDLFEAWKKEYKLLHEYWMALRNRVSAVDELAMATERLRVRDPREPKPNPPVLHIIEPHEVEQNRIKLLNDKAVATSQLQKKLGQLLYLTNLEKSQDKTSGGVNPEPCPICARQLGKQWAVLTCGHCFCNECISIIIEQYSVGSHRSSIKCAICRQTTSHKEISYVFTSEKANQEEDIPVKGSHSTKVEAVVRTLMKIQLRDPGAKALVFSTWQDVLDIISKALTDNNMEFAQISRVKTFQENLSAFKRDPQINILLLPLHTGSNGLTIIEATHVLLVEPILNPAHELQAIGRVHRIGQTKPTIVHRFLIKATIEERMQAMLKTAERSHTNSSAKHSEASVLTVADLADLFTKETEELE

[6] = target: T2, FLAG-tagged SHPRH (1–605) (UniProt Q149N8); assay: as above
T2 sequence: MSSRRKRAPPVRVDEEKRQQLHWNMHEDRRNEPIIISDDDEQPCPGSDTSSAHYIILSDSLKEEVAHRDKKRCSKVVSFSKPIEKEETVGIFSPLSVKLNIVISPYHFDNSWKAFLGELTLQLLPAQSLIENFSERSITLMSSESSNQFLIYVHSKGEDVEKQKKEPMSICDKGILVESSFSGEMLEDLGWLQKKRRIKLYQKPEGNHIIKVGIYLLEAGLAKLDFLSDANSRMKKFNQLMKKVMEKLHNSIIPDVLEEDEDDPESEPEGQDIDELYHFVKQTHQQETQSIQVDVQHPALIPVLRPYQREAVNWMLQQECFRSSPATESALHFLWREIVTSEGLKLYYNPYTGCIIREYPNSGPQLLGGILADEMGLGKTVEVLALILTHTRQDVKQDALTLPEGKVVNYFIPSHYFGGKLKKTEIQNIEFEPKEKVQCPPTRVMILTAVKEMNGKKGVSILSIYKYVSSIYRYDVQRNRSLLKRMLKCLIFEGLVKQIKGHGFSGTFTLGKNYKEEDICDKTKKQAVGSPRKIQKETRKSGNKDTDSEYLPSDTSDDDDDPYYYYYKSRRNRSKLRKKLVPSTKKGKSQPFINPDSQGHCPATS

[7] = target: T3, FLAG-tagged SHPRH (606–1090) (UniProt Q149N8); assay: as above
T3 sequence: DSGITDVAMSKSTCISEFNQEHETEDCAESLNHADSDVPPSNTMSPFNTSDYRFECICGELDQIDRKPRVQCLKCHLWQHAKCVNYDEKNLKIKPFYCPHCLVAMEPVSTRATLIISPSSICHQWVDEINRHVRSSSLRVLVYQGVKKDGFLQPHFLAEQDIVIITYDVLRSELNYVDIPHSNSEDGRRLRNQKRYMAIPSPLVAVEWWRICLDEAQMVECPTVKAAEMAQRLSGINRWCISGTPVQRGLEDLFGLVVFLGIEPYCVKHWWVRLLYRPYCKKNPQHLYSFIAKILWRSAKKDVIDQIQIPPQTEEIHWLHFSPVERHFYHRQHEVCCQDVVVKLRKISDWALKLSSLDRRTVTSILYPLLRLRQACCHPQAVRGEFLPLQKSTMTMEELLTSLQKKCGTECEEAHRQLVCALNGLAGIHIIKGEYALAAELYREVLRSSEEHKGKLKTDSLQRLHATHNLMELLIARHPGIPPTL

Q: For “SNF2 histone linker PHD RING helicase (SHPRH), endogenous (from UniProt Q149N8 1-1683)”, which binding [1] is on record?
A: binds

Q: And the binding [2]?
A: binds

Q: And the binding [3]?
A: binds weakly

Q: And the binding (GFP-tagged PARP1 (1–374))?
A: binds

Q: And the binding [4]?
A: binds

Q: How did the binding (FLAG-tagged SHPRH) turn out when “poly (ADP-ribose) polymerase I (PARP1), endogenous (from UniProt P09874 1-1014)” was run?
A: binds

Q: What about the binding [5] of the same molecule?
A: binds weakly

Q: What about the binding [6] of the same molecule?
A: binds

Q: And the binding [7]?
A: binds

B1: SWI/SNF-related, matrix-associated, actin-dependent regulator of chromatin, subfamily A-like 1 (SMARCAL1), endogenous (protein, UniProt Q9NZC9 1-954)
chain: MSLPLTEEQRKKIEENRQKALARRAEKLLAEQHQRTSSGTSIAGNPFQAKQGPSQNFPRESCKPVSHGVIFKQQNLSSSSNADQRPHDSHSFQAKGIWKKPEEMPTACPGHSPRSQMALTGISPPLAQSPPEVPKQQLLSYELGQGHAQASPEIRFTPFANPTHKPLAKPKSSQETPAHSSGQPPRDAKLEAKTAKASPSGQNISYIHSSSESVTPRTEGRLQQKSGSSVQKGVNSQKGKCVRNGDRFQVLIGYNAELIAVFKTLPSKNYDPDTKTWNFSMNDYSALMKAAQSLPTVNLQPLEWAYGSSESPSTSSEGQAGLPSAPSLSFVKGRCMLISRAYFEADISYSQDLIALFKQMDSRRYDVKTRKWSFLLEEHSKLIAKVRCLPQVQLDPLPTTLTLAFASQLKKTSLSLTPDVPEADLSEVDPKLVSNLMPFQRAGVNFAIAKGGRLLLADDMGLGKTIQAICIAAFYRKEWPLLVVVPSSVRFTWEQAFLRWLPSLSPDCINVVVTGKDRLTAGLINIVSFDLLSKLEKQLKTPFKVVIIDESHFLKNSRTARCRAAMPVLKVAKRVILLSGTPAMSRPAELYTQIIAVKPTFFPQFHAFGLRYCDAKRMPWGWDYSGSSNLGELKLLLEEAVMLRRLKSDVLSQLPAKQRKIVVIAPGRINARTRAALDAAAKEMTTKDKTKQQQKDALILFFNRTAEAKIPSVIEYILDLLESGREKFLVFAHHKVVLDAITQELERKHVQHIRIDGSTSSAEREDLCQQFQLSERHAVAVLSITAANMGLTFSSADLVVFAELFWNPGVLIQAEDRVHRIGQTSSVGIHYLVAKGTADDYLWPLIQEKIKVLAEAGLSETNFSEMTESTDYLYKDPKQQKIYDLFQKSFEKEGSDMELLEAAESFDPGSASGTSGSSSQNMGDTLDESSLTASPQKKRRFEFFDNWDSFTSPL
Q: What does the source list for B1?
A: binding [1]: binds; binding [2]: binds; binding [3]: binds weakly; binding (GFP-tagged PARP1 (1–374)): binds; binding [4]: binds

B2: zinc finger RANBP2-type containing 3 (ZRANB3), endogenous (protein, UniProt Q5FWF4 1-1079)
chain: MPRVHNIKKSLTPHISCVTNESDNLLDFLPDRLRAKLLPFQKDGIIFALKRNGRCMVADEMGLGKTIQAIGITYFYKEEWPLLIVVPSSLRYPWTEEIEKWIPELSPEEINVIQNKTDVRRMSTSKVTVLGYGLLTADAKTLIDALNNQNFKVVIVDESHYMKSRNATRSRILLPIVQKARRAILLTGTPALGRPEELFMQIEALFPQKFGRWTDYAKRYCNAHIRYFGKRPQWDCRGASNLNELHQLLSDIMIRRLKTEVLTQLPPKVRQRIPFDLPSAAAKELNTSFEEWEKIMRTPNSGAMETVMGLITRMFKQTAIAKAGAVKDYIKMMLQNDSLKFLVFAHHLSMLQACTEAVIENKTRYIRIDGSVSSSERIHLVNQFQKDPDTRVAILSIQAAGQGLTFTAASHVVFAELYWDPGHIKQAEDRAHRIGQCSSVNIHYLIANGTLDTLMWGMLNRKAQVTGSTLNGRKEKIQAEEGDKEKWDFLQFAEAWTPNDSSEELRKEALFTHFEKEKQHDIRSFFVPQPKKRQLMTSCDESKRFREENTVVSSDPTKTAARDIIDYESDVEPETKRLKLAASEDHCSPSEETPSQSKQIRTPLVESVQEAKAQLTTPAFPVEGWQCSLCTYINNSELPYCEMCETPQGSAVMQIDSLNHIQDKNEKDDSQKDTSKKVQTISDCEKQALAQSEPGQLADSKEETPKIEKEDGLTSQPGNEQWKSSDTLPVYDTLMFCASRNTDRIHIYTKDGKQMSCNFIPLDIKLDLWEDLPASFQLKQYRSLILRFVREWSSLTAMKQRIIRKSGQLFCSPILALEEITKQQTKQNCTKRYITKEDVAVASMDKVKNVGGHVRLITKESRPRDPFTKKLLEDGACVPFLNPYTVQADLTVKPSTSKGYLQAVDNEGNPLCLRCQQPTCQTKQACKANSWDSRFCSLKCQEEFWIRSNNSYLRAKVFETEHGVCQLCNVNAQELFLRLRDAPKSQRKNLLYATWTSKLPLEQLNEMIRNPGEGHFWQVDHIKPVYGGGGQCSLDNLQTLCTVCHKERTARQAKERSQVRRQSLASKHGSDITRFLVKK
Q: Which binding [1] does the source give for B2 here?
A: binds

Q: What about the binding [2] of the same molecule?
A: binds weakly

Q: And the binding [3]?
A: binds

Q: And the binding (GFP-tagged PARP1 (1–374))?
A: binds weakly

Q: And the binding [4]?
A: binds
